Reference: patent US7202065B2, “Stabilized liquid preparation of the protease which activates blood coagulation factor VII, or of its proenzyme” (ZLB Behring GmbH, priority 2001, dated 2007)
Some of these results come from one statement about several compounds together.

Assay: activity retained after dissolving the lyophilizate, compared with the solution before freeze-drying
Type: physicochemical
Conditions: lyophilized form, after the lyophilizate is dissolved

proenzyme: proenzyme, which is the non-activated form of the protease which activates blood coagulation factor VII
activity retained compared with the solution before freeze-drying: more than 90%
